# Results from PubChem BioAssay AID1458 (National Center for Advancing Translational Sciences (NCATS), 2008).
# Hit rate of the full screen: of about 210,000 compounds, about 5,900 (2.8%) were called active. Not shown: some 5% with an inconclusive outcome. Calls come from the whole dose curve; as a rule, active = well fitted activation curve with a large enough effect; inconclusive = small, poorly fitted or top-dose-only effect; inactive = no such curve, though single readings can be large or run the other way. This is a selection; strong and weak results do not stand in their true shares. Where no call is shown, the source filed none.
# Test: qHTS Assay for Enhancers of SMN2 Splice Variant Expression; note: nearly all actives have a fitted effect of over 55% in size; for activity change, positive = activation: % of control where 0% means no effect
# Conditions: HEK293 SMN2-luciferase splicing reporter, luminescence, 30-36 h; activity change, positive = activation: at 46.1 µM (top of the series) unless noted
# How it was run: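 qHTS luciferase splicing reporter: luminescence rises when SMN2 exon 7 is included in transfected HEK293 cells. Compound exposure lasted 30-36 h at 37C, with 4.5 mM final sodium butyrate as control, followed by a ONE-Glo read.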
# Potency is the fitted concentration of half-maximal effect.
Compound,"activity change, positive = activation",Potency
Cc1ccc(Oc2c(C(N)=O)cc([N+](=O)[O-])cc2[N+](=O)[O-])cc1,inactive: -98.1%,–
CCCC(C(=O)c1ccccc1)n1cncn1 (centres undefined),62%,–
O=C(Nc1ccc2c(c1)OCO2)C1CCCN(c2nc3ccccc3s2)C1 (centres undefined),-31.1%,–
O=C(CSc1ncnc2ccccc12)Nc1cc(S(=O)(=O)N2CCCCC2)ccc1Cl,inactive: -33.9%,–
CC1(C)NC(=O)N(CC(O)CNC23CC4CC(CC(C4)C2)C3)C1=O (centres undefined),36.7%,–
Cc1nc2cc(-c3ccc(Cl)cc3)nn2c(NCCN(C)C)c1C,-83.4%,–
c1ccc(-c2nnc(-c3ccccc3)o2)cc1,–,active: 12.6 µM
Cc1ccc(OCC(=O)N(Cc2ccccc2)c2ccccn2)cc1,inactive: -25.5%,–
COc1ccc(S(=O)(=O)CC2(O)CCN(C(=O)CC(C)C)CC2)cc1,-33.5%,–
Cc1ccc(-c2nc(N)n(S(C)(=O)=O)n2)cc1,39.1%,–
COc1ccc(COc2cc(-c3cccc(OC)c3)nc3ccc(N)cc23)cc1,inactive: -40.6%,–
Cc1ccccc1NC(=O)c1sc(NC(=O)COc2ccccc2)c(C#N)c1C,inactive: -47.7%,–
CC(C)NS(=O)(=O)c1ccc(CCC(=O)N2CCOCC2)cc1,32.7%,–
CCOC(=O)C1CCCN(C(=O)C2CCN(S(=O)(=O)c3cnc[nH]3)CC2)C1 (centres undefined),38.2%,–
Cc1ccc(N2CS(=O)(=O)/C(=C/N(C)C)C2=O)cc1,–,active: 12.6 µM
Cc1ccc(CNc2nc(Cl)c(C#N)s2)cc1,127%,–
CSc1ccccc1C(=O)Nc1cccc(N(C)S(C)(=O)=O)c1,60.4%,–
CCOC(=O)c1c(NC(=O)CSc2nnc(C)c(=O)[nH]2)sc2c1CCC2,35.7%,–
COc1cc(C(C[N+](=O)[O-])c2c(-c3ccccc3)cc3ccccn23)cc(OC)c1OC (centres undefined),31.6%,–
O=C1C2=C(Nc3ccccc3SC2c2ccc(C(F)(F)F)cc2)c2ccccc21 (centres undefined),inactive: -73.8%,–
COCCn1c(=O)[nH]c2cc(C(=O)NCCN3CCN(c4ccc(OC)cc4)CC3)ccc2c1=O,inactive: -57.7%,–
C[C@H](Oc1ccc(Oc2cnc3ccc(Cl)cc3n2)cc1)C(=O)O,inactive: -5.4% [at 9.22 µM],–
COc1ccc(NC(=O)CSc2ccc(F)cc2)cc1S(=O)(=O)N1CCCCC1,-45.9%,–
CC(CN1CCCC(C(N)=O)C1)c1ccccc1 (centres undefined),34.6%,–
O=C(Cn1nnc(-c2ccccc2)n1)N/N=C/c1cc([N+](=O)[O-])ccc1O,-101%,–
CN1CCN(c2ncc3nc(-c4cc(F)cc(F)c4)c(=O)n(-c4ccccc4)c3n2)CC1,inactive: -28.4%,–

Compound,"activity change, positive = activation",Potency
CCOC(=O)c1cnn2c(C)cc(-c3ccccc3)nc12,–,active: 31.6 µM
Cc1nc2scc(C)n2c(=O)c1S(=O)(=O)Nc1ccc(N2CCN(C(=O)C(C)C)CC2)cc1,-32.8%,–
Cc1ccc2oc(=O)c3cnn(CC(=O)N(CCCN4CCOCC4)Cc4ccco4)c3c2c1,57.6%,–
COC(=O)c1nn(-c2ccccc2)c2nnc(Cc3ccc(C)cc3)c(=O)n12,3.91%,–
O=C(CCNC(=O)c1ccccc1Cl)Nc1nccs1,-26%,–
COC(=O)C(C(=O)Nc1ncccn1)C1CCCCCC1 (centres undefined),41.4%,–
Nc1nonc1-c1nc2ccccc2n1CC(=O)N1CCN(c2ccc(F)cc2)CC1,inactive: -34.9%,–
CCn1c(SCC(=O)Nc2ccc(S(=O)(=O)Nc3ccccn3)cc2)nnc1-c1ccncc1,34.4%,–
COc1ccc(Cc2nnc(N/N=C/c3ccc(O)cc3O)[nH]c2=O)cc1OC,-83.9%,–
CCCCCC(=O)N1CCN(CCN=CC2=C(O)CC(c3ccc(OC)c(OC)c3)CC2=O)CC1 (centres undefined),33.1%,–
CCOc1ccc(CCNc2nc3c(c(=O)n(C)c(=O)n3C)n2CC)cc1OCC,inactive: -85.6%,–
COc1ccc(C(=O)N/N=C(\c2ccccc2)c2ccccn2)cc1,inactive: -66.9%,–
CCCCn1c(/C=C/c2ccco2)nc2ccccc21,–,active: 15.8 µM
CC(=O)c1c(C)[nH]c(C(=O)Nc2ccc(C)c(C)c2)c1C,31.9%,–
CCC(C)(C(=O)NC1CCCCC1)N(CC1CCCO1)C(=O)c1ccccn1 (centres undefined),33.8%,–
Cc1cccc(-c2nc(SCC(=O)Nc3ccc4c(c3)OCO4)c(-c3ccccc3)[nH]2)c1,inactive: -49%,–
CS(=O)(=O)N(CC(=O)N1CCCCCC1)Cc1ccc(Cl)cc1,36.1%,–
Cc1nnc2ccc(-c3cccc(NC(=O)c4ccc(Br)o4)c3)nn12,35.7%,–
O=C(NNC(=S)NC(=O)c1sc2ccccc2c1Cl)c1ccc(Cl)cc1,inactive: -47.4%,–
c1ccc(-n2ncc3c(NCCN4CCOCC4)ncnc32)cc1,41.4%,–
CCCC(=O)N1CCN(c2ccc(NC(=S)NC(=O)c3cccc(C)c3)cc2)CC1,inactive: -50.5%,–
Cc1ccc(N=N/C(=C\O)C(=O)c2ccc(Cl)cc2)cc1,-67.5%,–
COc1cc(C(=O)O)cc(NC(=O)c2cccs2)c1OC,11.4%,–
CCOC(=O)N1CCC(NC(=O)Cn2c3ccccc3c3cn[nH]c(=O)c32)CC1,67.1%,–
Cn1c2ccccc2c2c(C(=O)NCC3CCCO3)cn(C3CCCC3)c(=O)c21 (centres undefined),inactive: -45.4%,–
COc1cc(C(=O)N2CCN(C(=O)C3CC3)CC2)cc(OC)c1OC,33.7%,–

Compound,"activity change, positive = activation",Potency
COc1cccc(NC(=O)COc2ccc(C)cc2)c1,inactive: -51.4%,–
Cc1cccc(Cn2nnc3c2C(=O)c2ccccc2C3=O)c1,inactive: -73.8%,–
COC(=O)C1=C(C(=O)OC)SC2(S1)C(C(=O)OC)=C(C(=O)OC)SC1=C2c2cc(C)ccc2NC1(C)C,42.1%,–
CN(C)S(=O)(=O)c1ccc(NC(=O)c2ccccn2)cc1,–,active: 11.2 µM
COc1ccc(CCNC(=O)COC(=O)Cc2cccc3ccccc23)cc1,30.7%,–
Cc1ccc(/C=N/NC(=O)c2nn(C)cc2Cl)cc1,–,active: 11.2 µM
COC(=O)c1ccc(/C=N/OCC(=O)NC2CCCC(C)C2C)cc1 (centres undefined),inactive: -74.1%,–
CC(=O)N(\C=C/C=C/C=C1\Sc2ccccc2C1=O)c1ccccc1,inactive: -58.2%,–
CC(Oc1ccc2ccccc2c1)C(=O)NNC(=S)NC(=O)c1ccco1 (centres undefined),-42%,–
CC(=O)c1ccc(N2CCN(C(=O)/C=C/c3ccc4ccccc4n3)CC2)cc1,inactive: -75.7%,–
Cc1c(N/N=C(\C#N)C(=O)c2ccc(Cl)cc2)c(=O)n(-c2ccccc2)n1C,-89.4%,–
CN(C)CCN(C(=O)c1ccc(N2C(=O)CCC2=O)cc1)c1nc2cc3c(cc2s1)OCCO3,31.4%,–
COc1cc(/C=C(\C#N)c2nc3c(s2)CCCC3)ccc1O,–,active: 22.4 µM
COc1ccc2c(c1)C(=O)/C(=C/C=C/c1ccccc1)CC2,–,active: 11.2 µM
COc1cc(C(=O)Nc2cc(C)c(OCC(=O)N3CCOCC3)c(C)c2)cc(OC)c1OC,42.7%,–
COc1cccc(C(=O)Nc2cc3c(cc2Cl)OCCCO3)c1,–,active: 10 µM
CCOc1cccc(N2C(=O)CC(N3CCN(c4nc5ccccc5s4)CC3)C2=O)c1 (centres undefined),36.6%,–
CC1CC(=O)N(c2ccc(NCc3ccc(Cl)cc3)c([N+](=O)[O-])c2)C1=O (centres undefined),9.66%,–
O=C(N/N=C/c1ccsc1)c1ccccn1,195%,–
CCOC(=O)N1CCC(Nc2nc3ccccc3nc2NS(=O)(=O)c2ccc(Cl)cc2)CC1,50.5%,–
COC(=O)c1cccc(NC(=O)c2onc3c2CCCC3)c1,–,active: 0.794 µM
COc1cc(CNc2ccc(CNc3ncn[nH]3)cc2)cc(Cl)c1OCc1ccccc1,-42.8%,–
Cc1ccc(-c2nnc(N(C)C(=O)c3ccccn3)s2)cn1,63.4%,–
COc1ccc(C2(O)CCN(CC(=O)Nc3nc(-c4ccccc4)cs3)CC2)cc1,inactive: -52.6%,–
Cc1cc(NS(=O)(=O)Cc2ccccc2)no1,43.5%,–
O=C1N=C(N2CCOCC2)S/C1=C\c1ccc(-c2ccccc2Cl)o1,inactive: -16.7%,–

Compound,"activity change, positive = activation",Potency
O=C(Nc1ccncc1)C1c2ccccc2Oc2ccccc21,81.8%,–
CCN(CC)C(=O)c1ccccc1NS(=O)(=O)c1ccc(C)cc1,44.1%,–
COC(=O)c1cc(-c2ccccc2)n(CC(=O)O)c1C,83.2%,–
CN(C)c1ccc(C=Nc2cnn(C)c2C(N)=O)cc1,34.5%,–
COc1cccc(C(=O)Oc2cc3c4c(c2)C(C)=CC(C)(C)N4C(=O)C3=O)c1,12%,–
CCOc1ccc(C(=O)C(CCC(CN(C)C)C(=O)c2ccc(OCC)cc2)CN(C)C)cc1 (centres undefined),inactive: -107%,–
C/C(=N\OCc1ccccc1C#N)c1cc2ccccc2o1,35.5%,–
Cc1ccc(NC(=O)c2ccc(OC(F)(F)F)cc2)cc1S(=O)(=O)N(C)C,inactive: -75.9%,–
CCn1c(NC(=O)c2cccc(Cn3cc(Cl)cn3)c2)nc2ccccc21,inactive: -52%,–
CN1CCN(C(=S)NC(=O)/C=C/c2ccccc2)CC1,-25.2%,–
COC(=O)c1sccc1NC(=O)c1ccc(C)s1,-46.1%,–
N#CC1=C(N)Oc2c(ccc3cccnc23)C1c1cccnc1 (centres undefined),-35.4%,–
Cc1cc(Cl)c(S(=O)(=O)NCc2ccncc2)cc1OCC(N)=O,-36.7%,–
S=C(NCCc1ccccc1)NN=C1CCCCCC1,–,active: 12.6 µM
Cc1ccc(O)c(C(=O)c2cnn(-c3ccccc3)c2)c1,81.7%,–
Cc1nnc(SCC(=O)N2CCc3ccccc3C2)s1,40.2%,–
Cc1onc(C(=O)Nc2sc3c(c2C#N)CCCC3)c1[N+](=O)[O-],-24%,–
Cc1cccc(NCc2cc(Cl)ccc2O)n1,-50.2%,–
Cc1ccc(CNC(=O)CCCCn2c(=O)c3ccccc3n(Cc3c(C)cc(C)cc3C)c2=O)cc1,inactive: -6.63%,–
CCCCCn1c(Sc2nc3ccccc3s2)nc2c1c(=O)[nH]c(=O)n2C,inactive: -47.6%,–
CCOC(=O)COc1ccc(-c2nnc(-c3ccccc3)o2)cc1,32.1%,–
CCC(=O)Nc1ccc2oc(-c3cccc(C)c3)nc2c1,–,active: 0.501 µM
Cc1ccc(Cl)cc1N1CCN(C(=O)C2CCN(S(=O)(=O)c3c(C)nn(C)c3C)CC2)CC1,inactive: -30.5%,–
Cc1cc2oc(=O)cc(CN3CCOCC3)c2cc1C,18.8%,–
C=C1c2c(Cl)ccc(O)c2C(O)=C2C(=O)[C@@]3(O)C(O)=C(C(N)=O)C(=O)[C@@H](N(C)C)[C@@H]3[C@@H](O)[C@H]12,inactive: -10.1% [at 20.6 µM],–
Cc1cc(C(=O)C(C)OC(=O)C2=NNC(=O)CC2)c(C)n1-c1ccc(OC(F)F)cc1 (centres undefined),-42.2%,–

# An excerpt from above in order of number of heavy atoms, smallest number first:
Compound,"activity change, positive = activation",Potency
Cc1cc2oc(=O)cc(CN3CCOCC3)c2cc1C,18.8%,–
C/C(=N\OCc1ccccc1C#N)c1cc2ccccc2o1,35.5%,–
CCCCCn1c(Sc2nc3ccccc3s2)nc2c1c(=O)[nH]c(=O)n2C,inactive: -47.6%,–
COc1cccc(C(=O)Oc2cc3c4c(c2)C(C)=CC(C)(C)N4C(=O)C3=O)c1,12%,–
C=C1c2c(Cl)ccc(O)c2C(O)=C2C(=O)[C@@]3(O)C(O)=C(C(N)=O)C(=O)[C@@H](N(C)C)[C@@H]3[C@@H](O)[C@H]12,inactive: -10.1% [at 20.6 µM],–
Cc1ccc(CNC(=O)CCCCn2c(=O)c3ccccc3n(Cc3c(C)cc(C)cc3C)c2=O)cc1,inactive: -6.63%,–
